# The list shows a part of the results.
# Sequences of proteins named here, by UniProt entry; tags and fusion partners are left off. A change or cut given only in a name is not applied to a line headed by its entry.
# UniProt O94906: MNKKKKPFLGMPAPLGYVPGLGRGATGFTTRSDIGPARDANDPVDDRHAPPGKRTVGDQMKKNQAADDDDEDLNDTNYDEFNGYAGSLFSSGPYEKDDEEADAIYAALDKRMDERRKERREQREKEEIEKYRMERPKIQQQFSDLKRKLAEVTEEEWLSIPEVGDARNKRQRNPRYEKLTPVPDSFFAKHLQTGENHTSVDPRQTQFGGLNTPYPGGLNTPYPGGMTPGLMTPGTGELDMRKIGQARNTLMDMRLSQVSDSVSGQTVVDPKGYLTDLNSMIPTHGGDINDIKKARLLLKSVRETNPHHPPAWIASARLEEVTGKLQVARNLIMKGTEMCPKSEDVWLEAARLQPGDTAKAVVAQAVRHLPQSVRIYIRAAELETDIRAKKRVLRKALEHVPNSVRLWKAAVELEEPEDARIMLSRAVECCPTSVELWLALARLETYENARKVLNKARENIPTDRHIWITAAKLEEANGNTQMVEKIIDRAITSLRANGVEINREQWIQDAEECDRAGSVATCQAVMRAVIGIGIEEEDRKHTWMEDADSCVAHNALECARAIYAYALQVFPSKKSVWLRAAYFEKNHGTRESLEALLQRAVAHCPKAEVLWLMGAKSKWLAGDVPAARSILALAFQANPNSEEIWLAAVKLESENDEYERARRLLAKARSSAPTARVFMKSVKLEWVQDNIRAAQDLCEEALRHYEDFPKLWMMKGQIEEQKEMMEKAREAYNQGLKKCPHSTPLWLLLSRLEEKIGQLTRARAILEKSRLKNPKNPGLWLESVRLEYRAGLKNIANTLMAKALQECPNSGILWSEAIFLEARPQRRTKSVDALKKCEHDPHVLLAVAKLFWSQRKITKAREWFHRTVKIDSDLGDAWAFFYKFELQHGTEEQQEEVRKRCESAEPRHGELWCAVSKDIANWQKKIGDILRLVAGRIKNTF
# UniProt Q99873, whole entry, looked up: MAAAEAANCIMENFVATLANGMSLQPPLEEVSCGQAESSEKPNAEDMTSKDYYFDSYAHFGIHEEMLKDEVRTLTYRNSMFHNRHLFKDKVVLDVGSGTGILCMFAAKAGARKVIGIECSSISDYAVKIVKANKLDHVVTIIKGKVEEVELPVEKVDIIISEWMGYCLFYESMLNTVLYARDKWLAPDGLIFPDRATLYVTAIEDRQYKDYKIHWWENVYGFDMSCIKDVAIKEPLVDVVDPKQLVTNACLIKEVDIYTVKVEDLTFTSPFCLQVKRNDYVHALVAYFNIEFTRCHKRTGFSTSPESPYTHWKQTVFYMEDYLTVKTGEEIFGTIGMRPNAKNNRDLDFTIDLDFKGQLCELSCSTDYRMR
# UniProt P10644, whole entry, looked up: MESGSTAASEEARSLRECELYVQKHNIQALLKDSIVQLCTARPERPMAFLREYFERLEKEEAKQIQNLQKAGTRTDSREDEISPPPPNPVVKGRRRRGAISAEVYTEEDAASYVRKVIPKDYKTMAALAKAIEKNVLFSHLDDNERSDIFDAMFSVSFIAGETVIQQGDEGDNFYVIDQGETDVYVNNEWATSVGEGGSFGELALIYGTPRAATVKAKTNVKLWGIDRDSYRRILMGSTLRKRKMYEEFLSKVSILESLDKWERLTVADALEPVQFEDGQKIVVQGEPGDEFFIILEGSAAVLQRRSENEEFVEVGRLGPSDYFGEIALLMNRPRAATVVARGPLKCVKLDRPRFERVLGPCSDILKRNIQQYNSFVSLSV
# UniProt P78527, whole entry, looked up: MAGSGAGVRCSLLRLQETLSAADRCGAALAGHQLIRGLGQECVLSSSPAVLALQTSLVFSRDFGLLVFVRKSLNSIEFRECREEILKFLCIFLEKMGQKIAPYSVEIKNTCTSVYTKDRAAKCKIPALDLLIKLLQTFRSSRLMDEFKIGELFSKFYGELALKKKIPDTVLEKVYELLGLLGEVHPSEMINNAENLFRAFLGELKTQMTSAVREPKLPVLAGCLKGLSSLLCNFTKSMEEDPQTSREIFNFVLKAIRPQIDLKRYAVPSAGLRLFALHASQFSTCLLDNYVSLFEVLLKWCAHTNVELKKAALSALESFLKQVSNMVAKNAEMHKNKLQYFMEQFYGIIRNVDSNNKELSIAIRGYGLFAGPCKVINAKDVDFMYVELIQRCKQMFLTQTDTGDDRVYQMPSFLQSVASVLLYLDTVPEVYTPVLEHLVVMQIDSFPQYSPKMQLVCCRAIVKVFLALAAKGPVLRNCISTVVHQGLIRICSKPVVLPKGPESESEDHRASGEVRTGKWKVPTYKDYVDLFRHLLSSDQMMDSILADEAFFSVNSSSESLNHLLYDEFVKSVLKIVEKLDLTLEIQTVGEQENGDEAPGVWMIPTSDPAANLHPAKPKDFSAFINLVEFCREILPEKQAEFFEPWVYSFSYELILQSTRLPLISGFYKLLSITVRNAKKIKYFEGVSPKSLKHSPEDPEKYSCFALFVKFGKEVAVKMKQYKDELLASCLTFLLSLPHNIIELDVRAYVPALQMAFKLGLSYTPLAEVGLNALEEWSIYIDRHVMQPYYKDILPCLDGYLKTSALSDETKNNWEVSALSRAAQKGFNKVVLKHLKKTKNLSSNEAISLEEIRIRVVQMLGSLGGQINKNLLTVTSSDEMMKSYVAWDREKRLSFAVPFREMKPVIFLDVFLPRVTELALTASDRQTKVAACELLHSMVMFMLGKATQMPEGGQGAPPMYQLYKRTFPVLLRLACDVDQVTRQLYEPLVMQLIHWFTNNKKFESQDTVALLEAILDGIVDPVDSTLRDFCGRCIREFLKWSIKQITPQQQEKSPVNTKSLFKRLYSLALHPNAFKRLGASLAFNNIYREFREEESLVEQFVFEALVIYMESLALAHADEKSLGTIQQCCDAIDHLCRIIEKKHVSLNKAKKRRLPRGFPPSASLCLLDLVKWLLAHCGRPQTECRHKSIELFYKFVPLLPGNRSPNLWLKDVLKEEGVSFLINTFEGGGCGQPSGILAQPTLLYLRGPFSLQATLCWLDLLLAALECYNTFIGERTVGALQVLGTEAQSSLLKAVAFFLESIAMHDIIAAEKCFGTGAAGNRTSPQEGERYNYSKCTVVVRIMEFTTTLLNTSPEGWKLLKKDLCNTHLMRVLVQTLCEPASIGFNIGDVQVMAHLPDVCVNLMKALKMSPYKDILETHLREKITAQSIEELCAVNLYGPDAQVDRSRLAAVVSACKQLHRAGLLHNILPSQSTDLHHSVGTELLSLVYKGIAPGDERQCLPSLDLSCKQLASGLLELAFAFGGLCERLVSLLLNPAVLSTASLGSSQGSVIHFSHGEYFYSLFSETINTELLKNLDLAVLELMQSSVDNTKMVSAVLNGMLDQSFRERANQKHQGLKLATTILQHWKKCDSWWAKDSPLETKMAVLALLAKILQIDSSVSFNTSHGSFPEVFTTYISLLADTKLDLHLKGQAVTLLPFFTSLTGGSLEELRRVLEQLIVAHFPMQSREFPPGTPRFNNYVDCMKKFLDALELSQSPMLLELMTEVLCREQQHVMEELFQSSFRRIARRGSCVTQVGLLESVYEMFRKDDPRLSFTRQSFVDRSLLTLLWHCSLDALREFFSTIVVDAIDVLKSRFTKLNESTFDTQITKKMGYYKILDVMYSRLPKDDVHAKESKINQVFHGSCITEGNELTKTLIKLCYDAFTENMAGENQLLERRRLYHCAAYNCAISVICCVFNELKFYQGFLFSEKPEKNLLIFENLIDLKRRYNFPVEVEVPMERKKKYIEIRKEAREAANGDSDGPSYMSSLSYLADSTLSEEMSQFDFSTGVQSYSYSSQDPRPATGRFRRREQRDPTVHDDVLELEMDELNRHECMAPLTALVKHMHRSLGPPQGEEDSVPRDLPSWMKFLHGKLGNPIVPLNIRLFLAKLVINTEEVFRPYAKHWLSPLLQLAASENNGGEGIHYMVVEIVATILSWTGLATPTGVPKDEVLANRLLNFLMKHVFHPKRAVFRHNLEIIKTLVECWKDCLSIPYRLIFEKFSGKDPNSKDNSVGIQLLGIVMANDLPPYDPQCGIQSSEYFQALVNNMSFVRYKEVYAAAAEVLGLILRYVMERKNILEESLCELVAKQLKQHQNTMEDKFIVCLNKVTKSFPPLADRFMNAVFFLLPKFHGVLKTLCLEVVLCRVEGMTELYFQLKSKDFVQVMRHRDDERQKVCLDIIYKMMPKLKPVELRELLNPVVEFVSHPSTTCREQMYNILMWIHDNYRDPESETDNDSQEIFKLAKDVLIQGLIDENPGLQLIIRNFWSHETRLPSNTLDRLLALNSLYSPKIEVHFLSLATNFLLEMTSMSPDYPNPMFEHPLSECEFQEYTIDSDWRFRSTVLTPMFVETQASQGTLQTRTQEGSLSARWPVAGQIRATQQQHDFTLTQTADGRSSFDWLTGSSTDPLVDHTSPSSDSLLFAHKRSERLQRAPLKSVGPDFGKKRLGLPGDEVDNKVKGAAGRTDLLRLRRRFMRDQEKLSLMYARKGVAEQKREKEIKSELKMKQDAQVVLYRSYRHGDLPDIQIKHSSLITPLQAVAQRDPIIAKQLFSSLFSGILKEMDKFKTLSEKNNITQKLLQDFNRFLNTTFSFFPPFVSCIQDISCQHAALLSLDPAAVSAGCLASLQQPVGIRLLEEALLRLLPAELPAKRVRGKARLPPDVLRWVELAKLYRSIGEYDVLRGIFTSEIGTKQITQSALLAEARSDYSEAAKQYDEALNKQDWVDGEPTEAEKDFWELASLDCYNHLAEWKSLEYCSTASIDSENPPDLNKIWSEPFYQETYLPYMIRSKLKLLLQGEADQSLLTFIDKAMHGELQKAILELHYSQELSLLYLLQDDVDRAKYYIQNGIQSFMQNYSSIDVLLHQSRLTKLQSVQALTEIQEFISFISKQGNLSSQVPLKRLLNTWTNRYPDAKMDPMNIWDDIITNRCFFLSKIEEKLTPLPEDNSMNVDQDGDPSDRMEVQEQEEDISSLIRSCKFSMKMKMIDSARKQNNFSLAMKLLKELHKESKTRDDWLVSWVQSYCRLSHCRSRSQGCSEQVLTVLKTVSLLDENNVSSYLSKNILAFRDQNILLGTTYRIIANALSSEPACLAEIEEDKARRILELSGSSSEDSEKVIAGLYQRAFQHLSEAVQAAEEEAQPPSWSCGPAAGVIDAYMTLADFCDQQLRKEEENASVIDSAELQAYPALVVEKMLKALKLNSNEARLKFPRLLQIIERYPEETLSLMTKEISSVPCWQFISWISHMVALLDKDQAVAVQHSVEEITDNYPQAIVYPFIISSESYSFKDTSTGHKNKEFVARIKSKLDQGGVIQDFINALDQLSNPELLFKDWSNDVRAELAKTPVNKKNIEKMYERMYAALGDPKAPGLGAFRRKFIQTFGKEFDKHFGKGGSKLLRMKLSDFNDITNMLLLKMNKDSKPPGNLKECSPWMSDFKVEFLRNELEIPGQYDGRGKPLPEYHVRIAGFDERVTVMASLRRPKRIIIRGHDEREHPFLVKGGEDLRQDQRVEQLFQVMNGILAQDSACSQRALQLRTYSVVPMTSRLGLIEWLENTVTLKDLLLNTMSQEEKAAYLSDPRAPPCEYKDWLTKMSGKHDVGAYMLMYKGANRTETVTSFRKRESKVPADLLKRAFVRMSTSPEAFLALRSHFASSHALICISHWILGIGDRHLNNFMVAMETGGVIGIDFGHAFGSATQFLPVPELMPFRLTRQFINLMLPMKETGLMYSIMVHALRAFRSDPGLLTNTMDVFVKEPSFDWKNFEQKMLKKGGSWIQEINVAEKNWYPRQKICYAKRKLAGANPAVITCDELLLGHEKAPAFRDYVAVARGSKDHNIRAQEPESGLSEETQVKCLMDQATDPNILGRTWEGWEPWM
# UniProt O14744, whole entry, looked up: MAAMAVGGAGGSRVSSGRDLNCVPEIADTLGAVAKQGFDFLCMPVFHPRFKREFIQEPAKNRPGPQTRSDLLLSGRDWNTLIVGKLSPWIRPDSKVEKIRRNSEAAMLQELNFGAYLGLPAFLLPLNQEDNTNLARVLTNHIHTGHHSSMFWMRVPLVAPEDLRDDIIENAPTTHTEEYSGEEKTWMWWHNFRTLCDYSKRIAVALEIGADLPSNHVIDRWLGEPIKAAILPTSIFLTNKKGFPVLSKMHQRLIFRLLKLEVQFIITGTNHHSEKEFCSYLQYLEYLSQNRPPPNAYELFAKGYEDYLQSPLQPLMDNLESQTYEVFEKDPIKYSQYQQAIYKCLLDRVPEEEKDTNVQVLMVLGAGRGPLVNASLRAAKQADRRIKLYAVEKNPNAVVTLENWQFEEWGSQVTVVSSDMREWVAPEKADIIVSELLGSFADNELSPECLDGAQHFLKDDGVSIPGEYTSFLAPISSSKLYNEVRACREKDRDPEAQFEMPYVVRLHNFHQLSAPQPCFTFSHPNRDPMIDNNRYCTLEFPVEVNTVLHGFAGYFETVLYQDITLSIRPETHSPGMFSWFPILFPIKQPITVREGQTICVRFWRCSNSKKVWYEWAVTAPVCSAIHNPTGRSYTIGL
# Compound: Cc1cc(ccc1-c1ccccc1)C(=O)N1CCCN(CC1)C(=O)CCl [compound 10]
# Experiment: probe-labelled cysteine peptide fold change vs DMSO (competition) (log2 fold change); higher = less target engagement (more negative = stronger competition)
# Conditions: THP-1, incubation time: 4 h
# 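Further: competitive profiling in live THP-1 cells: cysteine peptides tagged with an iodoacetamide desthiobiotin (IA-DTB) probe, intensity after compound treatment relative to DMSO-treated cells.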
Target,probe-labelled cysteine peptide fold change (10 µM),probe-labelled cysteine peptide fold change (50 µM)
PRPF6_O94906_901_CESAEPR (UniProt O94906),-0.146,-0.033
PRMT1_Q99873_119_VIGIECSSISDYAVK (UniProt Q99873),0.0641,0.0335
PRKCB_P05771_71_QGFQCQVCCFVVHKR (UniProt P05771),-0.282,-0.63
PRPF6_O94906_913_HGELWCAVSK (UniProt O94906),-0.0869,0.197
PRMT1_Q99873_103_VVLDVGSGTGILCMFAAK (UniProt Q99873),0.0776,0.00186
PRKAR1A_P10644_18_ECELYVQK (UniProt P10644),-0.286,-0.532
PRPS1_P60891_165_NCTIVSPDAGGAK (UniProt P60891),0.0905,0.0728
PRPF39_Q86UA1_413_ACTIHLPK (UniProt Q86UA1),0.0143,0.109
PRKD2_Q9BZL6_861_DLGGACPPQDHDMQGLAER (UniProt Q9BZL6),-0.804,-0.14
PRKDC_P78527_42_GLGQECVLSSSPAVLALQTSLVFSR (UniProt P78527),0.213,0.574
PRKDC_P78527_25_CGAALAGHQLIR (UniProt P78527),-0.441,-0.13
PSIP1_O75475_373_CIEALDELASLQVTMQQAQK (UniProt O75475),0.338,0.384
PRIM1_P49642_354_VDQFDPFTVPTISFICR (UniProt P49642),0.0272,0.199
PSMA2_P25787_213_ESFEGQMTEDNIEVGICNEAGFRR (UniProt P25787),-0.13,-0.258
PSD4_Q8NDX1_988_LHCPSDALDLWEEQLGR (UniProt Q8NDX1),0.0622,0.064
PRMT5_O14744_22_DLNCVPEIADTLGAVAK (UniProt O14744),-0.0753,0.0621
PRKDC_P78527_457_MQLVCCR (UniProt P78527),-0.451,0.188
PRKAR1A_P10644_362_VLGPCSDILKR (UniProt P10644),-0.21,-0.196
PRKCB_P05771_78_CHEFVTFSCPGADK (UniProt P05771),0.0418,0.28
PRMT5_O14744_42_QGFDFLCMPVFHPR (UniProt O14744),0.0447,-0.0675
PRRC2C_Q9Y520_177_ETNDDNYGPGPSLRPPNVACWR (UniProt Q9Y520),-0.177,-0.309
PRKDC_P78527_3293_SQGCSEQVLTVLK (UniProt P78527),0.0734,-0.119

# In another format: results already given.
Target | probe-labelled cysteine peptide fold change (10 µM) | probe-labelled cysteine peptide fold change (50 µM)
PSMA2_P25787_213_ESFEGQMTEDNIEVGICNEAGFRR (UniProt P25787) | -0.13 | -0.258
PSD4_Q8NDX1_988_LHCPSDALDLWEEQLGR (UniProt Q8NDX1) | 0.0622 | 0.064
